doi:10.1101/2021.05.09.443321
No constants are given. Whether binding was seen depends on the method and setting. In cells and extracts the contact can be indirect. Some entries that bind do so weakly or less than the wild type. Where a sequence is shown, tags or fusion partners need not be part of it.

By UniProt entry, the sequences of proteins in these tests, tags left out.
UniProt P63017, whole entry: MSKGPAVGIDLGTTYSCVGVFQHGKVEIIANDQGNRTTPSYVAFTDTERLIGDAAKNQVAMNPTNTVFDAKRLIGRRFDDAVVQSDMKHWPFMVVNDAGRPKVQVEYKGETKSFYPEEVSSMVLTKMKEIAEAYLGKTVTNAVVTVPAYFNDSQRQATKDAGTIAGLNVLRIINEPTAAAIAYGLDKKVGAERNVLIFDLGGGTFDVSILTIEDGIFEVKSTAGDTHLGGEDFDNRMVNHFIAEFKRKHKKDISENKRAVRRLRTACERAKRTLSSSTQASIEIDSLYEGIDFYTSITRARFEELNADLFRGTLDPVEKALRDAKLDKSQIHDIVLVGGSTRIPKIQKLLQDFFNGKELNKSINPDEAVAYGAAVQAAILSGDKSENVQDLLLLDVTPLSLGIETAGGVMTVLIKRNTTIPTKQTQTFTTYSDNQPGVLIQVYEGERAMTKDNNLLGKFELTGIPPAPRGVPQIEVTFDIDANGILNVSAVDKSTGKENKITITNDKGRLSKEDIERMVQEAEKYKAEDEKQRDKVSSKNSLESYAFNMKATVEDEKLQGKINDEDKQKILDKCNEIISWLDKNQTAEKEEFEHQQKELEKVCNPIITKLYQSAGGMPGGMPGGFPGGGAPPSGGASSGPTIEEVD
UniProt P25322, whole entry: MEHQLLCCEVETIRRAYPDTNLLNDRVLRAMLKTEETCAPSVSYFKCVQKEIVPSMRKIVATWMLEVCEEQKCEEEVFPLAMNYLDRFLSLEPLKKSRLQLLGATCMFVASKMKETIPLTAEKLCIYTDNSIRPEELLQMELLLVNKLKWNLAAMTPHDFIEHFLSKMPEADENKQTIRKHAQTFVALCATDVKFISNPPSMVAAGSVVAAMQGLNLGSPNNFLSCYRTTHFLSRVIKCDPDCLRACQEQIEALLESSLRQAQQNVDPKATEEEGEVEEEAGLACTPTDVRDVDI

Molecular target: Hsc70-HA (UniProt P63017)
Experiment: co-IP

| Molecule | binding |
| --- | --- |
| cyclin D1-Flag (from UniProt P25322 1-295) | binds |
| CDK4-Flag (protein, UniProt P30285 1-303) MAATRYEPVAEIGVGAYGTVYKARDPHSGHFVALKSVRVPNGGAAGGGLPVSTVREVALLRRLEAFEHPNVVRLMDVCATSRTDRDIKVTLVFEHIDQDLRTYLDKAPPPGLPVETIKDLMRQFLSGLDFLHANCIVHRDLKPENILVTSNGTVKLADFGLARIYSYQMALTPVVVTLWYRAPEVLLQSTYATPVDMWSVGCIFAEMFRRKPLFCGNSEADQLGKIFDLIGLPPEDDWPREVSLPRGAFAPRGPRPVQSVVPEMEESGAQLLLEMLTFNPHKRISAFRALQHSYLHKEESDAE | binds |
